Results are given in words; binding and its absence hold for the method and conditions named. Some results given as binding are weak or reduced against the parent protein; the word gives no strength.

Protein sequences, listed by entry. Tags and fused reporters are not part of them.
UniProt O95793: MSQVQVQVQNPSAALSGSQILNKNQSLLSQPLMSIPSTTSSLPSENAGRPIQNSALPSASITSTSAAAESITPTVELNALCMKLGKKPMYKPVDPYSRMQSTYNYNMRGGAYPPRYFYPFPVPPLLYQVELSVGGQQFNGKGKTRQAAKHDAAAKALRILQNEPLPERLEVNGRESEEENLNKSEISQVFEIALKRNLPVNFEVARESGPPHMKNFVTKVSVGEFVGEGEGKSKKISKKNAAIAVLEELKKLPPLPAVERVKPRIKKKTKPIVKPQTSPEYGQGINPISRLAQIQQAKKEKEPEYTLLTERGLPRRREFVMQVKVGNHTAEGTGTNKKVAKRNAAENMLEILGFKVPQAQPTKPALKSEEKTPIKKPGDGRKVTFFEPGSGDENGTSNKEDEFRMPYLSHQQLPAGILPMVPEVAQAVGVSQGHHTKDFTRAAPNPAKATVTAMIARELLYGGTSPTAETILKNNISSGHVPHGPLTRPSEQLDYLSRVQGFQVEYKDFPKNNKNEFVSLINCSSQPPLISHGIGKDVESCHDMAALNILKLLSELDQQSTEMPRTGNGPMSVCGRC

For this experiment, the target named is Staufen1 fused with EYFP at the C-terminus (human) (UniProt O95793). Briefly: native gel or EMSA; EMSA; self-interaction seen at a high concentration range of Staufen1 (>100 nM); further conditions only in Supplementary Figure S2E.

As for “Staufen1 fused with EYFP at the C-terminus (from UniProt O95793 1-577)”, the binding entry is given as “binds”.

These data come from paper PMC4551942.
